Assay results from paper PMC4919790, “Allosteric modulation of AURKA kinase activity by a small-molecule inhibitor of its protein-protein interaction with TPX2” (Scientific Reports, 2016).
The match of structure and compound is tentative.

Chains of the proteins cited; added tags and fusions are not shown. Residues count along the entry.
UniProt O14965, 123-403 limits assumed: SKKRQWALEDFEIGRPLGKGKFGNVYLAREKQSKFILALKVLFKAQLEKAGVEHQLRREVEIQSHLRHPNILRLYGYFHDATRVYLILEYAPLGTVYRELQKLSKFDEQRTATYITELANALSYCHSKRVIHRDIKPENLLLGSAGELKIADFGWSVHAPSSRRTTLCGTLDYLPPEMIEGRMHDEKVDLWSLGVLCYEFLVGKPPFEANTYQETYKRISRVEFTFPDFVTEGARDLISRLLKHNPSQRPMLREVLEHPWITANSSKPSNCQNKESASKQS

Molecular target: AURKA-TPX2 interaction (His-tagged AURKA123–403 / TAMRA-labelled TPX2 1–43) (Homo sapiens, UniProt O14965)
Assay: Fluorescence anisotropy (FA) competition assay: displacement of TAMRA-TPX2 1-43 from AURKA123-403
Conditions: read-out: Ki from FA competition assay; free-concentration corrected Cheng-Prusov equations

Work on Nc1ccccc1C(=O)O yielded a Ki greater than 500 µM.
